{"sequences": {"note": "Amino acid sequences for entries named in this document (tags omitted). A change or cut given only in a name is not applied to a line headed by its entry. Residues count along the entry.", "UniProt Q95107, residues 1-275": "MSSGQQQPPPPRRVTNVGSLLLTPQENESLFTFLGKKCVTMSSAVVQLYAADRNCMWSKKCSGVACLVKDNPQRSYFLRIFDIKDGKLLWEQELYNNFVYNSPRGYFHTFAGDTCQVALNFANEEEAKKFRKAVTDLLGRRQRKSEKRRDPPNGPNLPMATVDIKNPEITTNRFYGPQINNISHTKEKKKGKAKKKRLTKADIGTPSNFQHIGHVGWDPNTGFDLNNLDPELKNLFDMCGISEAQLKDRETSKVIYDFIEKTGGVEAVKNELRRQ", "UniProt Q9ER71": "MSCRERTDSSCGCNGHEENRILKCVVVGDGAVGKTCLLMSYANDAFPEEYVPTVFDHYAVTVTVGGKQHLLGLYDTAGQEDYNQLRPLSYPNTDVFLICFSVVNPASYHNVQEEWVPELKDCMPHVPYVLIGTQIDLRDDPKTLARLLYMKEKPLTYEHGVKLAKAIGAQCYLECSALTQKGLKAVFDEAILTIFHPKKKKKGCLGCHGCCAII"}, "source": "patent US20050112748A1", "key": {"[1]": {"biological_target": "N-terminal portion of N-WASP (1st to 275th amino acid residues) fused to the Gal4 activation domain (pACT2) (UniProt Q95107)", "experiment": "yeast two-hybrid, beta-galactosidase colony-lift filter assay"}, "[2]": {"biological_target": "N-terminal portion of N-WASP (1st to 275th amino acid residues) fused to the Gal4 activation domain (pACT2) (UniProt Q95107)", "experiment": "summary of the yeast two-hybrid interaction assay and the pull-down assay"}}, "note": "Results are given in words; binding and its absence hold for the method and conditions named. Some binding calls cover weakened binding; strength is not graded here.", "data": [{"substance": "Mouse Tc10 wild-type fused to the Gal4 DNA-binding domain (pGBT9) (from UniProt P04386 1-147; Q8R527 1-205) (enzyme)", "values": [{"measurement": "binding", "setting": "[1]", "value": "binds"}, {"measurement": "binding", "setting": "[2]", "value": "binds"}]}, {"substance": "Cdc42 wild-type fused to the Gal4 DNA-binding domain (pGBT9) (from UniProt P04386 1-147; P60766 1-191) (enzyme)", "values": [{"measurement": "binding", "setting": "[1]", "value": "binds"}, {"measurement": "binding", "setting": "[2]", "value": "binds"}]}, {"substance": "Constitutively active mouse RhoT(G30V) fused to the Gal4 DNA-binding domain (pGBT9) (from UniProt Q9ER71 1-214) (enzyme)", "values": [{"measurement": "binding", "setting": "[1]", "value": "binds"}]}]}
